Laboratory results taken from patent publication US20230324373A1, “PYRUVIC ACID OPTICAL PROBE, PREPARATION METHOD THEREFOR, AND APPLICATION THEREOF” (East China University of Science and Technology, priority 2020, published 2023).
Some results were stated once for a whole list of compounds, not compound by compound.

Assay: pyruvate response screening of purified fusion fluorescent protein (signal with 100 mM pyruvate divided by signal without pyruvate)
Assay type: biochemical
Conditions: cpYFP sensors; 100 mM pyruvate signal divided by signal without pyruvate

**Q.** With “193/195: optical sensor with cpYFP inserted at site 193/195 of PdhR(96-254)” as the substance, how does the “response to pyruvate than control” value read?
**A.** more than 2 fold

**Q.** With “192/195: optical sensor with cpYFP inserted at site 192/195 of PdhR(96-254)” as the substance, how does the “response to pyruvate than control” value read?
**A.** more than 2 fold

**Q.** With “191/192: optical sensor with cpYFP inserted at site 191/192 of PdhR(96-254)” as the substance, how does the “response to pyruvate than control” value read?
**A.** more than 2 fold

**Q.** With “191/194: optical sensor with cpYFP inserted at site 191/194 of PdhR(96-254)” as the substance, how does the “response to pyruvate than control” value read?
**A.** more than 2 fold

**Q.** For “210/214: optical sensor with cpYFP inserted at site 210/214 of PdhR(96-254)”, which “response to pyruvate than control” value is on record?
**A.** more than 2 fold

**Q.** With “192/194: optical sensor with cpYFP inserted at site 192/194 of PdhR(96-254)” as the substance, how does the “response to pyruvate than control” value read?
**A.** more than 2 fold

**Q.** For “117/121: optical sensor with cpYFP inserted at site 117/121 of PdhR(96-254)”, which “response to pyruvate than control” value is on record?
**A.** more than 2 fold

**Q.** With “141/143: optical sensor with cpYFP inserted at site 141/143 of PdhR(96-254)” as the substance, how does the “response to pyruvate than control” value read?
**A.** more than 2 fold
